Patent US5786332A, “Cytokine restraining agents and methods of use in pathologies and conditions associated with altered cytokine levels” (Trega Biosciences, Inc., priority 1995, dated 1998)

Test system: Sprague-Dawley rats
Assay: Cyclosporine-induced nephrotoxicity
Type: in vivo
Conditions: second study, control 27.6±1.9
Excerpt: B. Cyclosporine-Induced Nephrotoxicity: This experiment as performed to ascertain if EX-2 can mitigate the reduction in glomerular filtration rate (GFR) and renal blood flow, as well as the dysfunction in fluid and electrolyte homeostasis induced by immunosuppressive treatment with cyclosporine A.
In the first study, male Sprague-Dawley rats (n=43) with a weight range of 240-290 g at the initiation of the cyclosporine A (CsA) treatment were divided into 4 weight matched groups. […] Renal blood flow was determined by the inulin extraction technique. […]
In the second study, male Sprague-Dawley rats (n=31) with a weight range of 240-290 g at the time of initiation of the cyclosporine treatment were divided into 4 weight-matched groups. […] Renal hemodynamics were determined and extracellular fluid volumes were also assessed.
In the second study, where extracellular fluid volumes (ECF) were measured, there were no differences in ECF among control and treatment groups (27.6±1.9 in control, 27.5±1.7 in CsA and vehicle, 26.2±0.9 in CsA+200 μg/kg EX-2, and 25.7±1.4% in CsA+500 μg/kg EX-2). […]

Ac-Nle-Gln-His-(D)Phe-Arg-(D)Trp-Gly-NH2 [EX-2]
Extracellular fluid volume (ECF) (CsA 30 mg/kg SC + 200 μg/kg EX-2 twice daily): 26.2±0.9% | Extracellular fluid volume (ECF) (CsA 30 mg/kg SC + 500 μg/kg EX-2 twice daily): 25.7±1.4%
